Binding data for two molecules are collected here from patent US20160311878A1.

By UniProt entry, the sequences of proteins in these tests, tags left out. Residues count along the entry.
UniProt Q00987, residues 1-125: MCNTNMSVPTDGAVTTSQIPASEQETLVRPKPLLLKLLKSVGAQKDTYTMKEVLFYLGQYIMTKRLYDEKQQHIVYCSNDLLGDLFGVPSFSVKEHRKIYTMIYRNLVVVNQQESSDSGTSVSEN

Assay [1] addresses HDM2 N-terminal domain (NTD; the region from 1st to 125th amino acids of NP_002383.2) (human) (UniProt Q00987). In words: ELISA; HDM2 NTD coated on plate, GST fusion at 0-5.5 uM, anti-GST-HRP detection (FIG. 5). Background: An ELISA detects its analyte on a solid surface through an enzyme-linked reagent.
For assay [2], the target named is T1, HDMX N-terminal domain (NTD; the region from 1st to 132nd amino acids of NP_001191100.1) (human) (UniProt O15151).
T1 sequence (looked up): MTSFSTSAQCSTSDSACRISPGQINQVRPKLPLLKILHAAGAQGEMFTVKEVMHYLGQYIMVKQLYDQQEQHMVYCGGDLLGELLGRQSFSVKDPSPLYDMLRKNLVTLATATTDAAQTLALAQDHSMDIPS
In words: ELISA; HDMX NTD coated on plate, GST fusion at 0-5.5 uM, anti-GST-HRP detection (FIG. 3).

Results are given in words; binding and its absence hold for the method and conditions named. Some results given as binding are weak or reduced against the parent protein; the word gives no strength. Where a sequence is shown, tags or fusion partners need not be part of it.

B1: GST-M11 (modified three-helix bundle protein M11, an a3D variant, fused to GST) (designed binder, not shown: a dimerising Fc or GST; large carriers; small tags and cut ends)
chain: MGSWAEFSQRLFAIYWRLLALGGSEAELAAFEKEIAAFESELQAYKGKGNPEVEALRKEAAAIRDELQAYRHN
With B1, the binding result in assay [1] and in assay [2] was “binds” throughout.

B2: GST-M25 (modified three-helix bundle protein M25, an a3D variant, fused to GST) (designed binder, not shown: a dimerising Fc or GST; large carriers; small tags and cut ends)
chain: MGSWFEFAWRLLEIKTRLQALGGSEAELAAFEKEIAAFESELQAYKGKGNPEVEALRFEAYWIRLELQAYRHN
Turning to B2, the binding result in assay [1] and in assay [2] was “binds” in each case.
